These are yes or no findings as the source states them, for the method shown. Binding seen in cells or lysates may run through a third protein. Some entries that bind do so weakly or less than the wild type.
Target: Ssu72 (UniProt Q9NP77)
Assay: co-IP; lysates of transfected NIH-3T3 cells immunoprecipitated with anti-FLAG antibody; immunoblotted with anti-p-STAT3 Tyr705, anti-p-STAT3 and anti-Ssu72 antibodies

Chains of the proteins cited; added tags and fusions are not shown.
UniProt Q9NP77: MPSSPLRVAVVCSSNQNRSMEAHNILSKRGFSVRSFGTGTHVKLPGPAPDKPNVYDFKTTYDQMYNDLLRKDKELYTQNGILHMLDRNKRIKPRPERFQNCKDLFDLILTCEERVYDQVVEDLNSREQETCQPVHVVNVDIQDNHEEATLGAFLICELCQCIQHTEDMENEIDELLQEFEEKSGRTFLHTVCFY
UniProt P42227: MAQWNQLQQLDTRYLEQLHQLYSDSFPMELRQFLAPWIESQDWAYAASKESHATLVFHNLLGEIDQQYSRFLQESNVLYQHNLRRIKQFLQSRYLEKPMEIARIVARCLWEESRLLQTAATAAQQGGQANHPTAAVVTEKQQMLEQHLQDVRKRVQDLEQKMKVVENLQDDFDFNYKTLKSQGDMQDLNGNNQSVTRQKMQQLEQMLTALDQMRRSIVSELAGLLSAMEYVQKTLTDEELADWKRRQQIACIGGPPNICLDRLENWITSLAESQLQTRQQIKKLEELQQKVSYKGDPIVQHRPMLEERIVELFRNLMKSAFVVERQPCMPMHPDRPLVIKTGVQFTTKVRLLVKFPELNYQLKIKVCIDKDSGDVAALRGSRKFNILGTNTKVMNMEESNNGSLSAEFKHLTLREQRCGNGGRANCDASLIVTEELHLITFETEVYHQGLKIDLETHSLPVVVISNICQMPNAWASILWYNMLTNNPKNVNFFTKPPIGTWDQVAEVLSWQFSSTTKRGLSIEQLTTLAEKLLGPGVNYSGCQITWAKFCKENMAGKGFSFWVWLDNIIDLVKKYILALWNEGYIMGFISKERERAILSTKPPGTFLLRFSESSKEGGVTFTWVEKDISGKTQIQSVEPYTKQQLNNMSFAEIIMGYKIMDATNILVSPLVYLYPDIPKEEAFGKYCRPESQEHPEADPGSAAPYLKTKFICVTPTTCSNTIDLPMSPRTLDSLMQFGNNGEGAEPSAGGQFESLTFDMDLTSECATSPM

Substance: Signal transducer and activator of transcription 3 (from UniProt P42227 1-770)
- binding: binds

From article PMC5511296
